Among the data in paper doi:10.1101/2025.02.21.639304 are binding values, retold here.

By UniProt entry, the sequences of proteins in these tests, tags left out. Where a name states a change or a piece, a line headed by the entry shows the natural chain unless it says otherwise.
UniProt O60674: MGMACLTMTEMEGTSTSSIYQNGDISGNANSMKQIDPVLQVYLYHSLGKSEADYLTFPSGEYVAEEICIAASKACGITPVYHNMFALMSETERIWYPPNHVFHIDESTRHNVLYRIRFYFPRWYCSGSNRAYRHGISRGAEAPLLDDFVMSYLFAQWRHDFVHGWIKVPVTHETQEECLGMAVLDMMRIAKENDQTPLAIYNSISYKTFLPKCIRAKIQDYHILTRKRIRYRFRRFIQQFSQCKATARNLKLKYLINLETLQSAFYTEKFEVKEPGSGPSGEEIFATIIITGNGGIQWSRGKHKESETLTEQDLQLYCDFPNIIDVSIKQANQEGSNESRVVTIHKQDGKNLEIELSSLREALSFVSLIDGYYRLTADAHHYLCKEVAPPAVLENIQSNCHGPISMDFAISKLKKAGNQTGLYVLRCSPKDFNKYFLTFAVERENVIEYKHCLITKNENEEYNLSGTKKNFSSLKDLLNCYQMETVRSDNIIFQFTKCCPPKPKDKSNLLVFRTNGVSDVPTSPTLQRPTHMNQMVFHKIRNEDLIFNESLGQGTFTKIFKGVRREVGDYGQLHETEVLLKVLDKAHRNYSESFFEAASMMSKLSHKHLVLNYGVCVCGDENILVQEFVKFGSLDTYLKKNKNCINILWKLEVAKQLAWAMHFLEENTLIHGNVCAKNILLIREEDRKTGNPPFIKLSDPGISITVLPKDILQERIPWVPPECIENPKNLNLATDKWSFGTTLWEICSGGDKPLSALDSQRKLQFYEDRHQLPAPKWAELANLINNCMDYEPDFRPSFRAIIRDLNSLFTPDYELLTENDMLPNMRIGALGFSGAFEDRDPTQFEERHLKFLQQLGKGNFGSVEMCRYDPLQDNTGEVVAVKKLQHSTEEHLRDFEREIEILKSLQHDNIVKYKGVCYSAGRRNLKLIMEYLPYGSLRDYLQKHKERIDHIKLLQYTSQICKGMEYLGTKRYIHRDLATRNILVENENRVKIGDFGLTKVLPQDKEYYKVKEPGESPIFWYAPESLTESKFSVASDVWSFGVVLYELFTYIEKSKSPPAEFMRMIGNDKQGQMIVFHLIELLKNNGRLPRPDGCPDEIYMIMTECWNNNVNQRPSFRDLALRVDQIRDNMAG
UniProt P42224: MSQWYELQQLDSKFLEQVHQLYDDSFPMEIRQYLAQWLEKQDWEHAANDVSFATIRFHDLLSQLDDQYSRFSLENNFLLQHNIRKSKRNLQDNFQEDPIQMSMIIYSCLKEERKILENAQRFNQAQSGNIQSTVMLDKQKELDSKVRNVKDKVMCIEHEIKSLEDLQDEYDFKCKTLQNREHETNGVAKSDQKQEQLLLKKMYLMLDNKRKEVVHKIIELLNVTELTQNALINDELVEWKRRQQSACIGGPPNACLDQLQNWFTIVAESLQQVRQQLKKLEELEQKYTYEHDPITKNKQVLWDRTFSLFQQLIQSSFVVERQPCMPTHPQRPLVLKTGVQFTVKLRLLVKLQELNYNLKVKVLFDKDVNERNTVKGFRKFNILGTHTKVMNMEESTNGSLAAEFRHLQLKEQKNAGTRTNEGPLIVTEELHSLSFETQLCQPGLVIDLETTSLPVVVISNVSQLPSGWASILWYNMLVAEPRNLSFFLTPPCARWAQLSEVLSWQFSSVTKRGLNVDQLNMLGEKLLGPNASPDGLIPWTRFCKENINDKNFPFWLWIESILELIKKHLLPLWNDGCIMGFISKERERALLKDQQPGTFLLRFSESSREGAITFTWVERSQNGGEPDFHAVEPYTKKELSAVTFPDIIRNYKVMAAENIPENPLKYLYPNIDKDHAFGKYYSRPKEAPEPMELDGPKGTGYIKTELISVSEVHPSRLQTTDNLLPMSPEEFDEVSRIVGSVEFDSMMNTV

This assay has as its target JAK2 of SET2 cells (JAK2 V617F mutated cell line) (human (endogenous in SET2)) (UniProt O60674). Put plainly: co-IP.

Results are given in words; binding and its absence hold for the method and conditions named. Binding seen in cells or lysates may run through a third protein. A result given as binding can be weak or reduced; the word gives no strength.

For STAT1 (from UniProt P42224 1-750), the binding result is “binds”.
